Reference: paper PMC10561725

Chains of the proteins cited; added tags and fusions are not shown.
UniProt P11940: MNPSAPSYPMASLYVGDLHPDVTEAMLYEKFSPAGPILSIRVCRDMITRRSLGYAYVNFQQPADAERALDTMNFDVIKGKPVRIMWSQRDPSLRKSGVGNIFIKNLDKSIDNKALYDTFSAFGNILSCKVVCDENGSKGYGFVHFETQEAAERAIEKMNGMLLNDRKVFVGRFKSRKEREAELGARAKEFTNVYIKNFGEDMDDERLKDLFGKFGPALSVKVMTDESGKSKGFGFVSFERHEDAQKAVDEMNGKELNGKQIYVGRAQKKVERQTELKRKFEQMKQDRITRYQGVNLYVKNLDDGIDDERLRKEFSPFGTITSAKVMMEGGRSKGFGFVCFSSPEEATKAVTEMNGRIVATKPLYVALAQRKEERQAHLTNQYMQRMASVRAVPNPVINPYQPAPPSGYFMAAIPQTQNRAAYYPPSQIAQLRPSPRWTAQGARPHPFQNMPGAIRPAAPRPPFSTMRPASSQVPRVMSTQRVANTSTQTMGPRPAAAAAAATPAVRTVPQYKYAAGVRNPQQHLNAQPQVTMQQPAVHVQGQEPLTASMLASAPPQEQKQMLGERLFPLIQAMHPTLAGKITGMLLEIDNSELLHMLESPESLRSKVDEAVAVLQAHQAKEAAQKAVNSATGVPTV
UniProt O15047: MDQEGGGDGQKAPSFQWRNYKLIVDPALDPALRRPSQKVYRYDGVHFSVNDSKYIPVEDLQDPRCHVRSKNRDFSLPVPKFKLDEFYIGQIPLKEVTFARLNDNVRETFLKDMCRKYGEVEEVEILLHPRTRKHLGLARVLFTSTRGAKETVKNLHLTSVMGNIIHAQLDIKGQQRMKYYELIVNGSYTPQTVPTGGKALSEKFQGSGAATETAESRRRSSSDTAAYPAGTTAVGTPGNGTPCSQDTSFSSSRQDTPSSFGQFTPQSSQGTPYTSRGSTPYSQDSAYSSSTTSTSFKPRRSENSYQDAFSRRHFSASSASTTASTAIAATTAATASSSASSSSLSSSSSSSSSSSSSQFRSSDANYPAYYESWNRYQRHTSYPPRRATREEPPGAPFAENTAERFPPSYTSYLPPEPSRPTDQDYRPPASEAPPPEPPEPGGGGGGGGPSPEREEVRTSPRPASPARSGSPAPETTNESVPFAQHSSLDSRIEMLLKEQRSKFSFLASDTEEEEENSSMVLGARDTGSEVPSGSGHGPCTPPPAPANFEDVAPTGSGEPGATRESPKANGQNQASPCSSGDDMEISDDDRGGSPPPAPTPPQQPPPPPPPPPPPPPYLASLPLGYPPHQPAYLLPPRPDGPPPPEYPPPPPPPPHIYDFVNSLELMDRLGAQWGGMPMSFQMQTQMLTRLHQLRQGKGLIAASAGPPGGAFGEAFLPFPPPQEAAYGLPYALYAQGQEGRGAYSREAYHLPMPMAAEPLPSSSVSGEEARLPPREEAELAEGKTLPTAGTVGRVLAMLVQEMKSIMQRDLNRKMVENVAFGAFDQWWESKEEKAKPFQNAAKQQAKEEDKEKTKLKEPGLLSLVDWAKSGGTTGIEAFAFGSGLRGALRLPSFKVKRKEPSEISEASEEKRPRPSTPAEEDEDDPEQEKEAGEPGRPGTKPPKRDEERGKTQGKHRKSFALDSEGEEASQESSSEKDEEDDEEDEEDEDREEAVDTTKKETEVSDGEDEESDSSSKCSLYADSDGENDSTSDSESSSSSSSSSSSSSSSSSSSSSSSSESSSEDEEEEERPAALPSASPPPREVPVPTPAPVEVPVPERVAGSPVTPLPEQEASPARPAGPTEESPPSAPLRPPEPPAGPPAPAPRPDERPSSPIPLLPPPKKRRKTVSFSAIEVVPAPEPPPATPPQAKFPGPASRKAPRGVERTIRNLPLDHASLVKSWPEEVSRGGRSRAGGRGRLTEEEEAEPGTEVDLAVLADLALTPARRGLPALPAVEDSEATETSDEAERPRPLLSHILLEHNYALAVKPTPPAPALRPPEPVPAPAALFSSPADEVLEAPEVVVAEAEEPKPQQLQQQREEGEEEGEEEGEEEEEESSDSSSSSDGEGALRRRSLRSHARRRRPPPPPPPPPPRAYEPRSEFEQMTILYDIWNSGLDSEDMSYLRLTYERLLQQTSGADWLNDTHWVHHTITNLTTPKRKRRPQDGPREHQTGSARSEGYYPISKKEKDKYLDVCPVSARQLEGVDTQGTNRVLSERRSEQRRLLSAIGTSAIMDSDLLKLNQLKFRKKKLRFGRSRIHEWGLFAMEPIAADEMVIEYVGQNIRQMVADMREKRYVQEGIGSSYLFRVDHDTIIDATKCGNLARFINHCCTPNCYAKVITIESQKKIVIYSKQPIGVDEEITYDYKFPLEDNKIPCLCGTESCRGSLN

Target: FLAG-tagged polyadenylate-binding protein cytoplasmic 1 (UniProt P11940)
Test: affinity purification with mass spectrometry; PLC cells transduced with FLAG-tagged PABPC1 vector or empty vector; NP-40 buffer (150 mM NaCl, 1.5 mM MgCl2, 0.5% NP-40, 50 mM Tris-HCl pH 8.0); anti-FLAG antibody, Protein A magnetic beads, 4°C overnight; interacting proteins identified by MS

binding: binds
Substance: SET domain containing 1A (from UniProt O15047 1-1707)

No constants are given. Whether binding was seen depends on the method and setting. In cells and extracts the contact can be indirect. These calls come from enrichment with a bait or labelling near it, and not all partners need be listed.
